Reference: paper PMC10570035
Results are given in words; binding and its absence hold for the method and conditions named. Some results given as binding are weak or reduced against the parent protein; the word gives no strength. Tags and fused reporters may be left off the sequences shown.

Protein sequences, listed by entry. Tags and fused reporters are not part of them.
UniProt P0A6F5: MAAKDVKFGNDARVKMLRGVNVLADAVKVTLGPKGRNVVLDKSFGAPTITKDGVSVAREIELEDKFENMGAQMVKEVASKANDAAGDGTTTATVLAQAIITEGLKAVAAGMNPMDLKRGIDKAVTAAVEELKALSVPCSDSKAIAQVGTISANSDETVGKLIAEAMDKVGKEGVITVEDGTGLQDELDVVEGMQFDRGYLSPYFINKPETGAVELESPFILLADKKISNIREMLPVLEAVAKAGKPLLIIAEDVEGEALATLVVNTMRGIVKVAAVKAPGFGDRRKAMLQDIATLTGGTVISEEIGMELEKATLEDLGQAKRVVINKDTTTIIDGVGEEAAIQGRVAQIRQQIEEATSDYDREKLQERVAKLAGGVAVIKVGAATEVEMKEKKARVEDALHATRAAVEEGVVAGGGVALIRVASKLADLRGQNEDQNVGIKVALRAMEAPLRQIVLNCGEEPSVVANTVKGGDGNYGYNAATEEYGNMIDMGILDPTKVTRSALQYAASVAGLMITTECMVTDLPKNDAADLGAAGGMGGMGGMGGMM

Legend:
Assay in all cases: co-purification through two affinity steps; MBP-eIF2A-His6 (wild type or deletion mutant) purified from E. coli lysate on cobalt resin by the His6 tag, then on amylose resin by the MBP tag; GroEL seen by SDS-PAGE and Coomassie stain and identified by mass spectrometry
MBP-eIF2A-His6 (human) = molecular target: T1, MBP-eIF2A-His6 (human) (UniProt Q9BY44)
T1 sequence: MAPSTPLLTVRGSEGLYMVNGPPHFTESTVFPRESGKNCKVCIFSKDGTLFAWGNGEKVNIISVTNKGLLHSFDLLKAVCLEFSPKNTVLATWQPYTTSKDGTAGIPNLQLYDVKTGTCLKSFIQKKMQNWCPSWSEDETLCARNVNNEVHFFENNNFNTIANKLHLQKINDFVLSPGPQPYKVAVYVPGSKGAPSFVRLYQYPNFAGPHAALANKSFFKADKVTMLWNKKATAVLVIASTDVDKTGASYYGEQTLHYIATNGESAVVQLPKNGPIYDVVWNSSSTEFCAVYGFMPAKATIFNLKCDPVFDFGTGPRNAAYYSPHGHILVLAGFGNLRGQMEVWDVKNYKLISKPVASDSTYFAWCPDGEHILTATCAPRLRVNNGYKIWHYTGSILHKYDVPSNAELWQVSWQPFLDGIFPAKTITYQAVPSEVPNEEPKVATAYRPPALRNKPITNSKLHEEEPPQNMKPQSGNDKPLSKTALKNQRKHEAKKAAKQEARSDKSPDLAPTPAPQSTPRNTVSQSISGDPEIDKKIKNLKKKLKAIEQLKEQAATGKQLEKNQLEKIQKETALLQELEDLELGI

[1] = molecular target: T2, MBP-eIF2A(1-437, GGS linker, 529-556)-His6 (human) (UniProt Q9BY44)
T2 sequence: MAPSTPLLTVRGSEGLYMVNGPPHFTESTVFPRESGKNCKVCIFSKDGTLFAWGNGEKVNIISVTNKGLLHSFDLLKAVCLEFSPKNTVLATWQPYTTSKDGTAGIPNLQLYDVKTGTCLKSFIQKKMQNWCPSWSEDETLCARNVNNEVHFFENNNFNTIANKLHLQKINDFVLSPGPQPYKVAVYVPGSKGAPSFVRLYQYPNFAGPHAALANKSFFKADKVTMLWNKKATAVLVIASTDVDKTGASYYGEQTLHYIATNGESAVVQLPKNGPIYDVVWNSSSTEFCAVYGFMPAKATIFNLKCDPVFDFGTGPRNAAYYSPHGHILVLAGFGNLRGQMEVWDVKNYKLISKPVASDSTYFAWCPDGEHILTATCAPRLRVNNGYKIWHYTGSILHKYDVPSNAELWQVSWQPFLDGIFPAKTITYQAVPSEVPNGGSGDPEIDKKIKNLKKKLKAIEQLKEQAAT

[2] = molecular target: T3, MBP-eIF2A(1-471)-His6 (human) (UniProt Q9BY44)
T3 sequence: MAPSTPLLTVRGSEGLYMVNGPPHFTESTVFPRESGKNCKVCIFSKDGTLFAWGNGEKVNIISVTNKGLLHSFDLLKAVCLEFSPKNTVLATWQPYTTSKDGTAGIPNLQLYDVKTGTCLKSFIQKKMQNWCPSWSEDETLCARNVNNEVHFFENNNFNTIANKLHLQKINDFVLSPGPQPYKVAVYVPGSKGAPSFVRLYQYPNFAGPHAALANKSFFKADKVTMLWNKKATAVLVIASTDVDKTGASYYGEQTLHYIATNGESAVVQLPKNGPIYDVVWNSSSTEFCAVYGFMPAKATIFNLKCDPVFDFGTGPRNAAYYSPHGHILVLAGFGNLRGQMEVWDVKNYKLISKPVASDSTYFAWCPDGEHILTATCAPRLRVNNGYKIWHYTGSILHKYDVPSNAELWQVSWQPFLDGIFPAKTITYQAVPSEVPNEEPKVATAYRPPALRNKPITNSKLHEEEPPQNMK

[3] = molecular target: T4, MBP-eIF2A(416-585)-His6 (human) (UniProt Q9BY44)
T4 sequence: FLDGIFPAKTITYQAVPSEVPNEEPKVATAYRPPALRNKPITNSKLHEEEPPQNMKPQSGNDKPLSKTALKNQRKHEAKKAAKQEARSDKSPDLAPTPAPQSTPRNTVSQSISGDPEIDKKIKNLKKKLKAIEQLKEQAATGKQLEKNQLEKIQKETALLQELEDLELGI

[4] = molecular target: T5, MBP-eIF2A(1-415)-His6 (human) (UniProt Q9BY44)
T5 sequence: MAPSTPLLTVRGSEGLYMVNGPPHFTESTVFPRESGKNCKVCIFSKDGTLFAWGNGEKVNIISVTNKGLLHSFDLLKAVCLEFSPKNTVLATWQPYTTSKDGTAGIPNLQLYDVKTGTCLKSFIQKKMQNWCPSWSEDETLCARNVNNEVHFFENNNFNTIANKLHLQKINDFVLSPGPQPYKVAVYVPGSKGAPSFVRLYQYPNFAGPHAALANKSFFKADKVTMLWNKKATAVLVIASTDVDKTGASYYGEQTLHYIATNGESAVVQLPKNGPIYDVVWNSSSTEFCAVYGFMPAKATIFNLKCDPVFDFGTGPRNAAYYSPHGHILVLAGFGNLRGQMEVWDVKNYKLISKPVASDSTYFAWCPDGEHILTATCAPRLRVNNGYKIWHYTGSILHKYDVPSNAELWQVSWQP

[5] = molecular target: T6, MBP-eIF2A(1-480)-His6 (human) (UniProt Q9BY44)
T6 sequence: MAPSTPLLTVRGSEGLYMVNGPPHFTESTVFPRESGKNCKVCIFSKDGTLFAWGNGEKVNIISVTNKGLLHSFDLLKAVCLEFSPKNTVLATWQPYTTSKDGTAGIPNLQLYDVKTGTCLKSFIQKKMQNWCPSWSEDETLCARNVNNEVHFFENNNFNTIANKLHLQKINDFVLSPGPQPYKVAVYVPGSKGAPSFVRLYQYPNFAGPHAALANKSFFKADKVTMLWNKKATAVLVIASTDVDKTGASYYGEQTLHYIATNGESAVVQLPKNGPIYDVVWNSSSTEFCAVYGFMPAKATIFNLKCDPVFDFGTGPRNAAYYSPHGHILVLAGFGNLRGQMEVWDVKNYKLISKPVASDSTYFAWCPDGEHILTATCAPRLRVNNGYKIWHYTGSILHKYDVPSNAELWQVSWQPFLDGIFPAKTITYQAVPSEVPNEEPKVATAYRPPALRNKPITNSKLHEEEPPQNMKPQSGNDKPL

[6] = molecular target: T7, MBP-eIF2A(533-585)-His6 (human) (UniProt Q9BY44)
T7 sequence: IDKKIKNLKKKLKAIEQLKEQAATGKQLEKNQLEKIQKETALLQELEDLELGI

[7] = molecular target: T8, MBP-eIF2A(1-437)-His6 (human) (UniProt Q9BY44)
T8 sequence: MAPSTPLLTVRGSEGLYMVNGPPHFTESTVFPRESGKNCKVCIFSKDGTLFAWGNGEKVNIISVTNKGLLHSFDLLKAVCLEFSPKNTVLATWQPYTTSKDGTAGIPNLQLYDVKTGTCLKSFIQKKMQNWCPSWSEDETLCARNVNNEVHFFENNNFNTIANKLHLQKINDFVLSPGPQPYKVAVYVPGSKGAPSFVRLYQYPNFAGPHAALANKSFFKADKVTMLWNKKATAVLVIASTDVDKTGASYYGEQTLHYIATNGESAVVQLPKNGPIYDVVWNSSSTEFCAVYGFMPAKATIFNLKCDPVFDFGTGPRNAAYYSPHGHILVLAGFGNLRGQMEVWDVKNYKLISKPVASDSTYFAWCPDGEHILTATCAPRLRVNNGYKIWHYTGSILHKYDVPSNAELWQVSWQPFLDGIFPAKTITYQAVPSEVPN

[8] = molecular target: T9, MBP-eIF2A(1-430)-His6 (human) (UniProt Q9BY44)
T9 sequence: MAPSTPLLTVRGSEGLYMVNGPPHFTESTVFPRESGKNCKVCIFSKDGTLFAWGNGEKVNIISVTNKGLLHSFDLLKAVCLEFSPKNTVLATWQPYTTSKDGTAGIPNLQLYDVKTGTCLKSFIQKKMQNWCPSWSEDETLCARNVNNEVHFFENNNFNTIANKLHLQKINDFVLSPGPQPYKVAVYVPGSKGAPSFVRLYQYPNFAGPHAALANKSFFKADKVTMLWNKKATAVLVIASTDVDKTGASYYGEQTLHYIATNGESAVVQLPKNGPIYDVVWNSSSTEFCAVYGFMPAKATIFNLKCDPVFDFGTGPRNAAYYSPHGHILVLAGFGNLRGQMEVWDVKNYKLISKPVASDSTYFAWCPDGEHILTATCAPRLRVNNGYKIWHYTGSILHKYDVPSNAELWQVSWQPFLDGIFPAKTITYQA

[9] = molecular target: T10, MBP-eIF2A(1-437, GGS linker, 504-556)-His6 (human) (UniProt Q9BY44)
T10 sequence: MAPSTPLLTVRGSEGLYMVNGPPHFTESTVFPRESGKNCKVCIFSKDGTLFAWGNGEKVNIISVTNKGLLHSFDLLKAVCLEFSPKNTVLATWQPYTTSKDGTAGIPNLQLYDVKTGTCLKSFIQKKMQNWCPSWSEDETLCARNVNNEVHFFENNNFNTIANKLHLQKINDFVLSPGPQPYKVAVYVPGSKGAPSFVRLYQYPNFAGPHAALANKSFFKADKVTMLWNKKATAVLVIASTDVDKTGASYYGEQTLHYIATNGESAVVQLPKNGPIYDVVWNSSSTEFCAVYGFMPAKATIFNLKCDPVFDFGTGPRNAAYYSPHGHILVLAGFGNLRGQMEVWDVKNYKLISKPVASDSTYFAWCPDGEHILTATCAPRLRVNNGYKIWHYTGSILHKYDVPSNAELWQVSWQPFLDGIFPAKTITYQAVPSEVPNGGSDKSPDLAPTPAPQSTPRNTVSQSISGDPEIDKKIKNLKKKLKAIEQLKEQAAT

Measured: binding

E. coli GroEL chaperone (from UniProt P0A6F5 1-548)
binds: MBP-eIF2A-His6 (human) | [1] | [2] | [3] | [4] | [5] | [6] | [7] | [8] | [9]
